In paper PMC5264588, “ER residency of the ceramide phosphoethanolamine synthase SMSr relies on homotypic oligomerization mediated by its SAM domain” (Scientific Reports, 2017):
Results are given in words; binding and its absence hold for the method and conditions named. In cells and extracts the contact can be indirect. Some binding calls cover weakened binding; strength is not graded here. Tags and fused reporters may be left off the sequences shown.

T1: V5/His6-tagged SMS1ΔSAM (human) (UniProt Q86VZ5)
T1 sequence: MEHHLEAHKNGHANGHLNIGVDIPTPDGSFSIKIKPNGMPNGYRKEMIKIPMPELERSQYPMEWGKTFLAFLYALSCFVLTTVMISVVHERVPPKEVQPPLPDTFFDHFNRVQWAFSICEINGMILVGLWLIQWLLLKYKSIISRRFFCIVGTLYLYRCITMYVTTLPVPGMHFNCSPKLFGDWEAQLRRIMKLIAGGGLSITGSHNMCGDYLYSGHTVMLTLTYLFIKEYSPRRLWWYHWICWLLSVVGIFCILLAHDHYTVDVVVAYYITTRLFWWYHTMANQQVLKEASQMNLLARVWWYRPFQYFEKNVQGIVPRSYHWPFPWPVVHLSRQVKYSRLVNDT

T2: V5/His6-tagged SMS1 (human) (UniProt Q86VZ5)
T2 sequence: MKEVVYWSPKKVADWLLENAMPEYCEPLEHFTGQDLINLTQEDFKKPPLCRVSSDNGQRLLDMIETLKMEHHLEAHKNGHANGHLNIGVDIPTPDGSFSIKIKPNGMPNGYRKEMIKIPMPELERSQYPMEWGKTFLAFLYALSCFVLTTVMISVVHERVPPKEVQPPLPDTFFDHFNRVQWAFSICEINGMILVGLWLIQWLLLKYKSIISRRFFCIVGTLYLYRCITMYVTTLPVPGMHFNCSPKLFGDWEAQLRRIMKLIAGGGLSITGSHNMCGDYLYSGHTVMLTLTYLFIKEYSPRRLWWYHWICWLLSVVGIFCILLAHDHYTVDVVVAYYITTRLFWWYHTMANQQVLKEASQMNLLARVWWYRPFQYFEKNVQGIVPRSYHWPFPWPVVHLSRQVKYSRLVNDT

T3: V5/His6-tagged SMSr (human, UniProt Q96LT4 1-415)
T3 construct: SMSr (SAMD8), ceramide phosphoethanolamine synthase, human, UniProt Q96LT4; the cDNA was PCR amplified and cloned with a C-terminal V5/His6 tag; also called SMSr-V5; SAMD8; source: HeLa, transfected (pcDNA3.1/V5-His TOPO), in detergent extract; not shown: V5, C-terminal, kept; His6, C-terminal, kept
T3 sequence (looked up): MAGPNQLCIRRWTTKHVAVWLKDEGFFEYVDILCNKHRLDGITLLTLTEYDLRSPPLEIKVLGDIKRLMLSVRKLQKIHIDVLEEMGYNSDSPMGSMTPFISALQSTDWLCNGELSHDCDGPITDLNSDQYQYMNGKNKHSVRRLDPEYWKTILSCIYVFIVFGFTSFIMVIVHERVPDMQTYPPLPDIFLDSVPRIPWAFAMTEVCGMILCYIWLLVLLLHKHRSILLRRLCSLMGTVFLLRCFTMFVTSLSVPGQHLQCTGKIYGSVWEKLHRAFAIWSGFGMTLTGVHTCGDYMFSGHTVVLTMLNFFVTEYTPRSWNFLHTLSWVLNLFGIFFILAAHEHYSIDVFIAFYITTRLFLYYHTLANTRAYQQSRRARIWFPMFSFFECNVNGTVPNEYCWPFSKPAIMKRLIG

T4: V5/His6-tagged SMSrΔSAM-KKSA (human) (UniProt Q96LT4)
T4 sequence: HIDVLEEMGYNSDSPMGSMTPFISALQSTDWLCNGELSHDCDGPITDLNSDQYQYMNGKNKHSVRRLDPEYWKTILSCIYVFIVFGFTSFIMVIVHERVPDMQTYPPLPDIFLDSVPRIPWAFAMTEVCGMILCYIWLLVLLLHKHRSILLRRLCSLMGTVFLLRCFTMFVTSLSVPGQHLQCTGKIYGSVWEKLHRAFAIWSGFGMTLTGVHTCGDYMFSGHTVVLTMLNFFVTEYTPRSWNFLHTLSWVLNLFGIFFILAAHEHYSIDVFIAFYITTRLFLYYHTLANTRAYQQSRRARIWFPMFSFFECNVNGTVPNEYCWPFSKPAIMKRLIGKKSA

T5: V5/His6-tagged SMSrΔSAM (human) (UniProt Q96LT4)
T5 sequence: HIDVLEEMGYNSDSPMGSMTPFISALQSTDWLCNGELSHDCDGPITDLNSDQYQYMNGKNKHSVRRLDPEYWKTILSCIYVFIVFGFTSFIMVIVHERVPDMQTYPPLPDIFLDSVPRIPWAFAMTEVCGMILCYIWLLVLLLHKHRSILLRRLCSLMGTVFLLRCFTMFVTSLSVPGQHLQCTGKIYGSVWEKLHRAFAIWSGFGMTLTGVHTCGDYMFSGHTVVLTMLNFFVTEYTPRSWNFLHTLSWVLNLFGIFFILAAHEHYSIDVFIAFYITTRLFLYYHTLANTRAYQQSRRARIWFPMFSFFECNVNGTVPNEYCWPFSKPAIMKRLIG

B1: HA-tagged SMS1 (enzyme, UniProt Q86VZ5 1-413)
chain: T2 sequence
B2: HA-tagged SMSr (enzyme, human, UniProt Q96LT4 1-415, looked up)
chain: T3 sequence (looked up)
notes: SMSr (SAMD8), ceramide phosphoethanolamine synthase, human, UniProt Q96LT4; also called SMSr-HA; full-length SMSr-HA; source: HeLa (wild-type or SMSr-/-), transfected, in detergent extract; not shown: HA, C-terminal, kept

Experiments:
[1] = molecular target: T1, V5/His6-tagged SMS1ΔSAM (human); assay: co-IP; detergent extracts of HeLa cells co-transfected with HA-tagged and V5/His6-tagged constructs; anti-V5 immunoprecipitation, immunoblot with anti-V5 and anti-HA; non-reducing SDS-PAGE; no NEM named
[2] = molecular target: T2, V5/His6-tagged SMS1 (human); assay: as above
V5/His6-tagged SMSr = molecular target: T3, V5/His6-tagged SMSr; assay: co-IP; HeLa (wild-type or SMSr-/-) cells co-transfected with V5/His6- and HA-tagged constructs, solubilized with detergent with 10 mM NEM; anti-V5 immunoprecipitation, immunoblot with anti-V5 and anti-HA
[3] = molecular target: T4, V5/His6-tagged SMSrΔSAM-KKSA (human); assay: co-IP; detergent extracts of HeLa cells co-transfected with HA-tagged and V5/His6-tagged constructs; anti-V5 immunoprecipitation, immunoblot with anti-V5 and anti-HA; non-reducing SDS-PAGE; no NEM named
[4] = molecular target: T5, V5/His6-tagged SMSrΔSAM (human); assay: as above

Row | Binder | binding [1] | binding [2] | binding (V5/His6-tagged SMSr) | binding [3] | binding [4]
1 | B1 | binds | binds | – | – | –
2 | B2 | – | – | binds | no binding | no binding
